## Screening data, single-dose tests

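Cell assay of Leishmania donovani living inside macrophages; the read-out is not stated. Concentration: 30 µM. Direction is inferred from retests: higher values go with stronger inhibition. Of about 69,000 compounds tested this way, about 1,000 (1.5%) reached 50% or more in at least one test.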

The filed quantity is “Percent Effect” (%).
The controls that fix the scale are not given in the record; negative values are as filed.
This is an unselected part of the compounds tested.
Two or more numbers in one place are separate tests of the same structure; such repeats can differ widely.

| # | Compound | Percent Effect |
|---|---|---|
| 1 | `O=S(=O)(c1cccs1)N1CCCCC1c1ccn[nH]1` (stereo not shown) | 0.9648 & -8.021 |
| 2 | `N#CCCN(CCC#N)C(=O)c1ccc(COc2ccccc2C#N)o1` | 7.695 |
| 3 | `CN1CCOC(CNCc2cccc(OCc3ccccn3)c2)C1` (stereo not shown) | 45.04 |
| 4 | `Clc1cc(N2CCN3CCCCC3C2)nc2[nH]ccc12` (stereo not shown) | 48.48 |
| 5 | `CCc1nc(CN2CCCN(c3nc4ccccc4o3)CC2)no1` | -18.47 |
| 6 | `Cc1n[nH]c2c1C(c1ccc(Cl)cc1)SCC(=O)N2` (stereo not shown) | 30.45 |
| 7 | `COCCNc1ncnc2c1CCN(C(=O)CC1CCC(=O)N1)CC2` (stereo not shown) | 19.66 |
| 8 | `CCN1CCN(C2CCN(Cc3noc(C4CC4)n3)CC2)C1=O` | 10.94 |
| 9 | `CN(Cc1noc2c1CCCC2)C(=O)Nc1ccc2oc(=O)n(C)c2c1` | -35.19 |
| 10 | `Cc1cnn(CC2CCCCN2C(=O)c2ccnc(N(C)C)c2)c1` (stereo not shown) | -14.18 |
| 11 | `CCOc1ccc(OCC)c(NCc2cc(C)on2)c1` | -30.11 |
| 12 | `O=C(C(CNCc1ccco1)c1ccccc1)N1CCOCC1` (stereo not shown) | 14.93 |
| 13 | `[H][C@]12CCN(Cc3ccc(OCC)c(CO)c3)C[C@]([H])(CC1)N2` | 3.708 |
| 14 | `Cc1ccc(CN(C)C(=O)CN2CCCC(Cn3cncn3)C2)cc1` (stereo not shown) | 20.65 |
| 15 | `CCc1nnc(CS(=O)(=O)c2ccc(C)c(C)c2)n1C` | -16.72 |
| 16 | `O=C1NCCCC12CCN(Cc1ccc(SC3CCCCC3)o1)C2` (stereo not shown) | 12.52 |
| 17 | `Fc1cccc(CN2CCC(c3noc(-c4ccncc4)n3)CC2)c1F` | 26.46 |
| 18 | `O=C(C1CCS(=O)(=O)C1)N1CCN(c2cnccn2)CC1` (stereo not shown) | -13.61 |
| 19 | `NC(=O)CN(Cc1cccc(Oc2ccccc2)c1)C(=O)C1CC1` | 24.59 |
| 20 | `Cc1ccc(CN2CCc3ncc(CNC(=O)C4CCC4)n3CC2)o1.O=C(O)C(F)(F)F` | 12.73 |
| 21 | `CC(C)OCCC(=O)NS(=O)(=O)N1CCOc2ccccc21` | -11.14 |
| 22 | `COCCn1c2c(ccc1=O)CCN(C(=O)CC1CC1)CC2` | 2.882 |
| 23 | `O=C(O)C1(Cc2ccccc2Cl)CCN(c2ncccc2F)CC1` | 7.577 |
| 24 | `CCC(C)(NCc1nc(C)c(C)o1)c1nccs1` (stereo not shown) | -56.15 |
| 25 | `Cn1c(CO)cnc1SC(C(N)=O)c1ccccc1` (stereo not shown) | 15.31 |
| 26 | `CCn1cc(C2=CCN(CCCOc3ccccc3)CC2)cn1` | -5.55 |
| 27 | `CC(C)(C(=O)NCC1CCN(Cc2ccccn2)C1)c1ccccc1` (stereo not shown) | -13.55 |
| 28 | `CCCC1CCCN(Cc2csc(-c3ncccn3)n2)CC1` (stereo not shown) | 77.24 |
| 29 | `O=C(NCc1ccccn1)NCC(c1ccco1)N1CCCCC1` (stereo not shown) | 12.73 |
| 30 | `CC(C)N(C)Cc1nnn2c1CN(Cc1cccnc1)CCC2.O=C(O)C(F)(F)F.O=C(O)C(F)(F)F.O=C(O)C(F)(F)F` | -19.03 |
| 31 | `CN(C)c1ncc(NC(=O)c2ccccc2C(F)(F)F)cn1` | 17.38 |
| 32 | `O=C(O)C(F)(F)F.O=C(O)C(F)(F)F.[H][C@@]12CN(Cc3nccs3)C[C@@]1([H])N(Cc1ccncc1)C(=O)CO2` | 18.95 |
| 33 | `CC(C)OCCCNS(=O)(=O)c1ccc2c(c1)NC(=O)C(C)O2` (stereo not shown) | -24.76 |
| 34 | `CC(C)CNc1nccc(-c2cnc3sc(Cl)cn3c2=O)n1` | 22.51 & 5.791 |
| 35 | `O[C@H]1CN(Cc2cccc(C(F)(F)F)c2)CC[C@@]12CCCO2` | 10.95 & 13.43 |
| 36 | `COCCC(=O)N1CCC2(CCCN2Cc2ccccc2)C1` (stereo not shown) | -10.09 |
| 37 | `CCS(=O)(=O)NCC(=O)NC(c1cc(C)sc1C)C(C)C` (stereo not shown) | -7.181 |
| 38 | `COc1ccccc1N1CCC(CNC(=O)N(C)Cc2ccco2)C1` (stereo not shown) | -2.901 |
| 39 | `Cc1c(C)c2c(c(C)c1O)CC[C@](C)(C(=O)O)O2` | 26.08 |
| 40 | `O=C(O)C(F)(F)F.[H][C@@]12CCN(Cc3ccccc3OC)C[C@]1([H])O[C@H](C(=O)N1CCCC1)C2` | 10.54 |
| 41 | `NCc1n[nH]c(-c2cccc(F)c2)n1` | 12.48 |
| 42 | `CCc1cnc(C)nc1N(C)CCCc1cnn(C)c1` | 14.77 |
| 43 | `CN(C)c1ccc(C(=O)Nc2cn[nH]c2)cc1` | 8.583 |
| 44 | `Cc1n[nH]c(C2CN(C(=O)CCc3ccsc3)CCO2)n1` (stereo not shown) | 10.35 |
| 45 | `Cc1cc(C)c(S(=O)(=O)NCCC(=O)NCc2ccoc2)c(C)c1` | 18.54 |
| 46 | `[H][C@@]12C[C@H](C(=O)Nc3cccnc3)[C@@]([H])(CN(S(=O)(=O)CCC)C1)O2` | 34.18 |
| 47 | `[H][C@@]12CCN(Cc3ccccc3)C[C@@]1([H])O[C@H](C(=O)NCC1CC1)C2` | 13.22 |
| 48 | `Cc1cc(C(=O)NCc2ccc(F)cc2)nc(C2CCCN2C)n1` (stereo not shown) | 18.85 |
| 49 | `COc1ccc(C2(C(=O)NCc3c(C)ncc4c3CCNC4)CC2)cc1` | 22.85 |
| 50 | `Cc1ccc(C(=O)N(Cc2cccc(F)c2)C2CC2)c(=O)[nH]1` | 17.14 |
| 51 | `N#Cc1ccc(OCC(O)CN2CCc3cncnc3C2)cc1` (stereo not shown) | 25.14 |
| 52 | `NC(=O)CC1CCN(Cc2ccccc2OCC(F)(F)F)CC1` | 38.4 |
| 53 | `O=C(c1cc(-c2ccc(O)cc2)n[nH]1)N1CCCC1c1cccnc1` (stereo not shown) | 12.87 |
| 54 | `c1ncn(CC2CCCN(Cc3nc(-c4ccoc4)no3)C2)n1` (stereo not shown) | 11.68 |
| 55 | `Cc1nc(NC(=O)C(C)N2CCN(c3ncccn3)CC2)sc1C` (stereo not shown) | 30.89 |
| 56 | `O=S(=O)(Nc1ccc2c(c1)OCCO2)N1CCCCC1` | -16.11 |
| 57 | `CN(Cc1cccnc1)CC1CCOc2ccccc2C1` (stereo not shown) | 38.38 |
| 58 | `CCCn1cnc(S(=O)(=O)Nc2cccnc2-n2cccn2)c1` | -35.47 |
| 59 | `Cc1ccsc1-c1nccn1CCS(=O)(=O)N1CCCC1` | -1.859 |
| 60 | `O=C(O)CCc1cc2n(n1)CCCN(C(=O)c1ccc(Cl)s1)C2` | 16.85 |

The first 5 entries again:

Compound	Percent Effect
O=S(=O)(c1cccs1)N1CCCCC1c1ccn[nH]1 (stereo not shown)	0.9648 & -8.021
N#CCCN(CCC#N)C(=O)c1ccc(COc2ccccc2C#N)o1	7.695
CN1CCOC(CNCc2cccc(OCc3ccccn3)c2)C1 (stereo not shown)	45.04
Clc1cc(N2CCN3CCCCC3C2)nc2[nH]ccc12 (stereo not shown)	48.48
CCc1nc(CN2CCCN(c3nc4ccccc4o3)CC2)no1	-18.47

The values are deposited in ChEMBL (CHEMBL3988442, “University of Dundee, Small-Polar-MMV Screening Library” (2021)).